According to PMC3056739:
No constants are given. Whether binding was seen depends on the method and setting. Some entries that bind do so weakly or less than the wild type. For some assays here: Where a sequence is shown, tags or fusion partners need not be part of it.

Chains of the proteins cited; added tags and fusions are not shown. Residues count along the entry.
UniProt P02545, residues 66-230: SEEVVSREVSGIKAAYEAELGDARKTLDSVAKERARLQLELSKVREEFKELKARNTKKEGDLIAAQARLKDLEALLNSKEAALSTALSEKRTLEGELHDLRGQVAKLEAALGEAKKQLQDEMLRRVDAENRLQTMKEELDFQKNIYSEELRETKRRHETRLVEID
UniProt P03070, residues 84-708: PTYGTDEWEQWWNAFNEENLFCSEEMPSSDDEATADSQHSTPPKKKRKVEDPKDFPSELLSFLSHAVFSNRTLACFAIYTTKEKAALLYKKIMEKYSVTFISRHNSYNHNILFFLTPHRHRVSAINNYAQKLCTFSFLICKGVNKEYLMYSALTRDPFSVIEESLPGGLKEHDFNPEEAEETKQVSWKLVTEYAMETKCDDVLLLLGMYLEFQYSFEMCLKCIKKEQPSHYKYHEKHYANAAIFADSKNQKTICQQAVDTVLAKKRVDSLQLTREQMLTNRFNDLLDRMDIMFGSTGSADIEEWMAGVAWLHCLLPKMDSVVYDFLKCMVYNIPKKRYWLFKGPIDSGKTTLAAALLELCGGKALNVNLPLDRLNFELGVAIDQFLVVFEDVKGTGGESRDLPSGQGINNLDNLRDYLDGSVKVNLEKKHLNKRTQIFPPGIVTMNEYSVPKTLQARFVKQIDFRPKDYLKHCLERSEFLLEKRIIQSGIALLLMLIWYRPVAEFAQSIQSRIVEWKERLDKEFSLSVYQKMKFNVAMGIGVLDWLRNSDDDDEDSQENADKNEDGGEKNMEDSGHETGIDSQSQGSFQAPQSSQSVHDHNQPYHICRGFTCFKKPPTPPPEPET

T1: Mycobacterium tuberculosis SigF (Rv3286c), Gal4 DNA-binding domain fusion from pGB3286c (M. tuberculosis) (UniProt P9WGI3)
T1 sequence: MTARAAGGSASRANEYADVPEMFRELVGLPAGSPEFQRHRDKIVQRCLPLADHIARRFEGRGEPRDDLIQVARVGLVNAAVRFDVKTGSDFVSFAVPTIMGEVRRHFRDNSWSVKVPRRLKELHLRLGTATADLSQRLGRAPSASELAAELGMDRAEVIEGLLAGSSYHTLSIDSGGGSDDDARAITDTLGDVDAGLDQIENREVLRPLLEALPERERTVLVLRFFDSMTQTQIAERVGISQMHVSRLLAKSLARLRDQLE

B1: Mycobacterium tuberculosis UsfX (Rv3287c), Gal4 activation domain fusion from pGA3287c (protein, UniProt P9WGX7 1-168)
chain: MTDQLEDQTQGGSTVDRSLPGGCMADSDLPTKGRQRGVRAVELNVAARLENLALLRTLVGAIGTFEDLDFDAVADLRLAVDEVCTRLIRSALPDATLRLVVDPRKDEVVVEASAACDTHDVVAPGSFSWHVLTALADDVQTFHDGRQPDVAGSVFGITLTARRAASSR

Key:
[1] = molecular target: Human lamin C (66-230), Gal4 DNA-binding domain fusion from pGBKT7-Lam (human) (UniProt P02545); assay: two-hybrid
[2] = molecular target: T1, Mycobacterium tuberculosis SigF (Rv3286c), Gal4 DNA-binding domain fusion from pGB3286c (M. tuberculosis); assay: two-hybrid

| Molecule | binding [1] | binding [2] |
| --- | --- | --- |
| SV40 large T-antigen (84-708), Gal4 activation domain fusion from pGADT7-T (from UniProt P03070 84-708) (domain or fragment) | no binding |  |
| B1 |  | binds |
